In publication PMC4759635:
These are yes or no findings as the source states them, for the method shown. Some entries that bind do so weakly or less than the wild type.

T1: Mcm5 (MCM subunit 5 of the Drosophila melanogaster CMG helicase) (Drosophila melanogaster) (UniProt Q9VGW6)
T1 sequence: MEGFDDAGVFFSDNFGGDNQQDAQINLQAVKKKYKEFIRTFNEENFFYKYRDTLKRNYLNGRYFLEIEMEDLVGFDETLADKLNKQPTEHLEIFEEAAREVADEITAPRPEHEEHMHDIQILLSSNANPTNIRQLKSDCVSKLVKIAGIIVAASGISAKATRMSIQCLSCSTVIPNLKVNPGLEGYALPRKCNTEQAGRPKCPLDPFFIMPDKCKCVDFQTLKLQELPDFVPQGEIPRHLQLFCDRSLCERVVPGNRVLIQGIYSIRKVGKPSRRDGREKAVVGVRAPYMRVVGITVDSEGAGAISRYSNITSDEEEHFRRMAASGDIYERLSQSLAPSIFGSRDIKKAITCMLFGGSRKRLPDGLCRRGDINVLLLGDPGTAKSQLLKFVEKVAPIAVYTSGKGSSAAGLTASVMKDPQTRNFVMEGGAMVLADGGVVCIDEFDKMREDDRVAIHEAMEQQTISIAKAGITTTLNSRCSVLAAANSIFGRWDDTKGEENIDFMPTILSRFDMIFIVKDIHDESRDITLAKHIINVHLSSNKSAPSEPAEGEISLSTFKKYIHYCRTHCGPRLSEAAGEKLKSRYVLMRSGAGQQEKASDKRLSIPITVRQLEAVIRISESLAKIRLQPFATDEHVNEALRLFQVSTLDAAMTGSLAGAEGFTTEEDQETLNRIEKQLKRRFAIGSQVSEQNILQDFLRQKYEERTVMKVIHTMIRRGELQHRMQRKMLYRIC

T2: Mcm2 (MCM subunit 2 of the Drosophila melanogaster CMG helicase) (Drosophila melanogaster) (UniProt P49735)
T2 sequence: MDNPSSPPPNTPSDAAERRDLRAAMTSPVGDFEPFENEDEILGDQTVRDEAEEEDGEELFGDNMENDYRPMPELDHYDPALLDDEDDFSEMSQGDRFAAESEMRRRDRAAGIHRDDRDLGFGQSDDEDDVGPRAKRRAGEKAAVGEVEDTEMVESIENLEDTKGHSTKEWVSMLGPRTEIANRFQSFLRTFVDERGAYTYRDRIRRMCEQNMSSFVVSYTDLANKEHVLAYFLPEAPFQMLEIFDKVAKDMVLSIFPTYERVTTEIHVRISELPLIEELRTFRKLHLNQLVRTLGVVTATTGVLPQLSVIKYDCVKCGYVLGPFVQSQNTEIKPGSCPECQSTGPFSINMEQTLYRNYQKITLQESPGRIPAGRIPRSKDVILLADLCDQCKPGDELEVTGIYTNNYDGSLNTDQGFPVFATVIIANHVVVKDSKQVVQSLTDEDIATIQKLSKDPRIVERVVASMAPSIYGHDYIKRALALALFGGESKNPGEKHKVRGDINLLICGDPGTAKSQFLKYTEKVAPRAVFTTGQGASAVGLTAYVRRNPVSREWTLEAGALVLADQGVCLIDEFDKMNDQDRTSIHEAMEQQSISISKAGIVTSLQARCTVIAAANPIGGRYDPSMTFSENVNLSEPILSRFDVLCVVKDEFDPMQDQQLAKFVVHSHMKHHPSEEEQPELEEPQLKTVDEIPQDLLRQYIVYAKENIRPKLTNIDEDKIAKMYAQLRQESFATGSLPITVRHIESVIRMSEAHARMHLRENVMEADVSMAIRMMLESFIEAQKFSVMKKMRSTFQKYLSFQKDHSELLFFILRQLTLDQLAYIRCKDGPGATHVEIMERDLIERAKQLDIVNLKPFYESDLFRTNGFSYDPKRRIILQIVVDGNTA

B1: Psf2 (GINS component of the Drosophila melanogaster CMG helicase) (protein, UniProt Q9VQY9 1-203)
chain: MDPSIIEFIGEKCMISIIPNFSNEPLHLIYGPVGPFRAGFPVFVPLWMATHLRKQQKCRIVPPEWMDMDILEEIKEEEKRSKFFTKMPCEHYMVVAQLVMSTAPDDVPRCEELRTVIKDIFDIRESKLRTSIDAFIKGEGTYAKLDNLTLLEIHSVRPILPYSLDHIARYQRTATASQRDTSMLSASMAGSSSGPNSNSLFSQ
B2: Cdc45 (subunit of the Drosophila melanogaster CMG helicase) (protein, UniProt O96989 1-575)
chain: MFVQDLRNDFYRQLVGKRILIVVNYDIDAICASRILQALFKYDHMLYTVVPIMGVTGLKRAYGEHQGDVKYVVLVNCGGCVDIVELLQPSDDVTFFICDSHRPLDVCNIYSDRQVCILGDASLEENIPAFETIFYDSEGEDEDEDESSDTEQQHDDSGAGESDQEDQAPRSRKLSRLERHEQRILKQRARRQWESERDRIMFEYTQFSYYGRSAALMVFELAWKLSKDNMDLLWWAIVGITEQLLLGKIESGAYTLELEQIQSHVSRLTNKTNDQNTMSASKITFENDLHLVLYRHWPVTESMRYSRYSSCQLKLWTLRGEKRLHELLLEMGLPLVHARQTYGAMDLVLRKEFFSMVERLAEKYDIADIVYGTFTLSYGYRSRYAAADYVYALLAIMESVKKHKTPEDCFLEASDALSRQHKQLLSAGIDQAKLLHAAVFRQVQSSLEARQVHSAGSFFYYVLQEEHAFFSYPYALGLLARFLLRGHVATSRARQASDLPLIASCPLNASEGMCLLVGIVPVREDSPRNFFGKAFEQAAQKSGVALLQDFFEPAVVQLRQSDLTRFLDSLTVLLA

Assays:
[1] = biological target: T1, Mcm5 (MCM subunit 5 of the Drosophila melanogaster CMG helicase) (Drosophila melanogaster); test: cryo-EM structure; purified Drosophila CMG; ATPγS–CMG–DNA fork complex (compact ATPase 7.4 Å, relaxed ATPase 9.8 Å) and ATP–CMG without DNA (compact and relaxed forms); maps read by rigid-body docking of yeast Mcm2-7 (PDB 3JA8), human GINS (PDB 2Q9Q) and RecJ (PDB 1IR6); buffer A: 25 mM Hepes pH 7.6, 50 mM sodium acetate, 10 mM magnesium acetate, 1 mM DTT; both purified
[2] = biological target: T2, Mcm2 (MCM subunit 2 of the Drosophila melanogaster CMG helicase) (Drosophila melanogaster); test: as above

Binder	binding [1]	binding [2]
B1	binds	
B2	binds	binds
